Laboratory results: PubChem BioAssay AID504784 (Drosophila RNAi Screening Center, 2011)

Assay: 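Fly genes whose silencing alters how much lipid cells keep in droplets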 (primary screen)
Cells: Drosophila Kc167 embryonic cells
Reagent: long dsRNA against Drosophila genes, about 250 ng dsRNA per well
Duration: 4 days
Challenge: cells fed 400 µM oleic acid bound to BSA
Detection: 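Microscope images give a droplet-to-nucleus area ratio, taken as log and converted to a screen-wide B-score; higher values mean greater lipid storage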
Scale: droplet/nuclear area B-score: higher = more stored lipid (overstorage)
In all, the deposit lists about 17,000 reagents; this is an unselected part of those with a known target gene and a result. 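Each column is one replicate's B-score; the combined score over replicates was not deposited, so single values may mislead.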 No sequences are given here.

Gene | amplicon | droplet/nuclear area B-score, replicate 1 | droplet/nuclear area B-score, replicate 2 | droplet/nuclear area B-score, replicate 3
Nepl19 | DRSC14875 | 1.07 | -0.202 | –
CG31659 | DRSC00760 | -0.128 | 1.62 | –
CG18336 | DRSC06334 | -1.81 | 0.256 | –
CG12236 | DRSC17830 | 2.69 | 2.84 | -2.32
CG12236 | DRSC17831 | -0.734 | -0.933 | –
CG6071 | DRSC10579 | -0.254 | -1.26 | –
CG7881 | DRSC04898 | 0.248 | 0.262 | –
CG6738 | DRSC16104 | -0.339 | 0.569 | –
CG7737 | DRSC07033 | -2 | -0.534 | –
gcl | DRSC07623 | 1.24 | -0.838 | –
CG13028 | DRSC09908 | -0.234 | -1.2 | –
sNPF | DRSC02309 | 0.805 | 0.442 | –
AttC | DRSC06886 | -0.57 | -0.00252 | –
CG5880 | DRSC15906 | 0.0212 | – | –
Rab32 | DRSC05146 | -0.348 | -0.229 | –
Rab32 | DRSC07522 | -1.5 | 0.379 | –
Cyp4e2 | DRSC07371 | -0.133 | -1.84 | –
CG10038 | DRSC14178 | 0.799 | 4.71 | –
Ttc26 | DRSC15591 | -0.829 | 0.449 | –
CG1523 | DRSC15033 | 1.28 | – | –

4 entries already listed, arranged by “droplet/nuclear area B-score, replicate 2”, descending.
Gene | amplicon | droplet/nuclear area B-score, replicate 1 | droplet/nuclear area B-score, replicate 2 | droplet/nuclear area B-score, replicate 3
CG12236 | DRSC17830 | 2.69 | 2.84 | -2.32
CG31659 | DRSC00760 | -0.128 | 1.62 | –
CG18336 | DRSC06334 | -1.81 | 0.256 | –
CG12236 | DRSC17831 | -0.734 | -0.933 | –

Further entries follow.
Gene | amplicon | droplet/nuclear area B-score, replicate 1 | droplet/nuclear area B-score, replicate 2 | droplet/nuclear area B-score, replicate 3
Acsf2 | DRSC02172 | 0.138 | -0.547 | –
CG10140 | DRSC09704 | -1.53 | -0.683 | –
Tep4 | DRSC03453 | 0.125 | -0.387 | –
CG7715 | DRSC16301 | -0.512 | -0.0279 | –
CG7135 | DRSC20026 | -0.236 | -3.2 | –
DAT | DRSC07394 | 0.28 | -1.66 | –
St4 | DRSC07008 | 0.355 | -0.653 | –
gammaTub37C | DRSC03535 | 0.841 | 0.947 | –
CG34370 | DRSC03913 | 0.674 | -0.126 | –
CG34370 | DRSC04142 | -2.36 | 1.85 | –
CG34370 | DRSC04143 | -0.706 | -0.397 | –
CG34370 | DRSC04144 | -0.843 | -1.28 | –
CG5399 | DRSC15791 | 1.01 | -0.558 | –
Oseg5 | DRSC03209 | -0.12 | -2.64 | –
